# Test results as given in PubChem BioAssay AID504834 (National Center for Advancing Translational Sciences (NCATS), 2011).
# The whole screen tested about 320,000 compounds, of which about 22,000 (6.9%) were called active. The inconclusive results got no clear call from the source; some entries with a clear call stand among them for comparison. Calls come from the whole dose curve; as a rule, active = well fitted inhibition curve with a large enough effect; inconclusive = small, poorly fitted or top-dose-only effect, or another doubt; inactive = no such curve, though single readings can be large or run the other way. Potencies beside an inconclusive call are fits to weak or partial responses and may not hold up.
# Assay: Primary qHTS for delayed death inhibitors of the malarial parasite plastid, 96 hour incubation
# Settings: P. falciparum luciferase reporter growth; series mostly up to 28.7 µM
# Procedure, shortened: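 Parasite growth measured via integrated firefly luciferase reporter in P. falciparum. Infected erythrocytes at 2% hematocrit, 0.05% parasitemia final were treated 96 hours at 37 C under 5% CO2, and luminescence was read.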
# % is set by controls: 0 for no effect and ±100 for the full control effect; potency is the fitted concentration of half-maximal effect.
SMILES,Potency,"activity change, negative = inhibition"
CC1CCN(C(C(=O)O)c2ccccc2)CC1 (stereo not given),"inconclusive: 9.28 µM [inhibitor, single point]",–
Cc1onc(-c2c(Cl)cccc2Cl)c1C(=O)N=C(N)N1CCOCC1,"inconclusive: 1.31 µM [inhibitor, partial curve, poor fit]",–
CC1(O)c2ccccc2C(=O)N1Cc1ccccc1 (stereo not given),inactive,–
NS(=O)(=O)c1ccc(CCNC(=O)CN2CCN(c3ccc(F)cc3)CC2)cc1,"inconclusive: 5.22 µM [inhibitor, partial curve]",–
COC(=O)c1n[nH]n(-c2cc(Cl)cc(Cl)c2)c1=O,"inconclusive: 18.5 µM [inhibitor, single point]",–
CCCc1cc2c(cc1NC(=O)c1ccccc1C)OCO2,inactive,–
CC(SC1=NCCS1)C(=O)Nc1nnc(-c2ccc(F)cc2)s1 (stereo not given),inactive,–
Cc1cc(CN2CCC(n3nccc3NC(=O)c3ccccc3Cl)CC2)cc(C)c1O,inactive,–
O=c1cc(-c2ccc(O)c(O)c2)oc2c1ccc1ccccc12,"inconclusive: 0.0329 µM [inhibitor, single point]",–
CCCCn1c(N)c(N(CC(C)C)C(=O)c2cc(-c3ccc(OC)c(OC)c3)nc3ccccc23)c(=O)[nH]c1=O,"inconclusive: 9.28 µM [inhibitor, partial curve, poor fit]",–
Cc1ccc(C2C3C(=O)N(c4ccccc4)C(=O)C3N3CCCN23)cc1 (stereo not given),inactive,–
O=C(O)CCCn1c(O)c(C=C2N=c3ccccc3=N2)sc1=S,"inconclusive: 14.7 µM [inhibitor, partial curve]",–
Cn1c(SCC(=O)Nc2ccccc2Oc2ccccc2)nnc1C1CC1,"inconclusive: 18.5 µM [inhibitor, single point]",–
O=C(CN1CCCCC1)N1CCN(c2ccccc2)CC1,inactive,–
CN(C)c1ccc(C=Nc2cnn(C)c2C(N)=O)cc1,"inconclusive: 10.4 µM [inhibitor, single point]",–
COc1cccc(-c2csc(N3CCN(CC(=O)NNC(=O)c4ccco4)CC3)n2)c1,inactive,–
Cc1ccc(CCNC(=O)CCCn2nc(C)c3c(C)n(-c4ccc(C)cc4)nc3c2=O)cc1,"inconclusive: 2.94 µM [inhibitor, partial curve]",–
CCOC(=O)/C(C#N)=C/c1ccc(N2CCN(C)CC2)cc1,inactive,–
COc1ccc(C(=O)OCc2csc(C)n2)c(O)c1,inactive,–
O=C(c1ccccc1NS(=O)(=O)c1cccc([N+](=O)[O-])c1)N1CCCC1,"inconclusive: 4.15 µM [inhibitor, partial curve, poor fit]",–
Nc1nnc(-c2ccccc2Cl)s1,"inconclusive: 16.5 µM [inhibitor, single point]",–
N/C(=N\S(=O)(=O)c1cc(C(F)(F)F)cc(C(F)(F)F)c1)c1ccncc1,"inconclusive: 5.86 µM [inhibitor, partial curve, poor fit]",–
O=C(/C=C/c1ccco1)N(Cc1cccc(Cl)c1)C1CCS(=O)(=O)C1 (stereo not given),"inconclusive: 13.1 µM [inhibitor, single point]",–

SMILES,Potency,"activity change, negative = inhibition"
Cc1ccc(S(=O)(=O)NC(CC(=O)O)c2ccco2)cc1 (stereo not given),"inconclusive: 10.4 µM [inhibitor, single point]",–
Cc1ccc(CN2CCN(/N=C/c3ccc(C)s3)CC2)c(C)c1,inactive,–
CCn1cc(S(=O)(=O)Nc2ccc(Cl)cc2F)cn1,"inconclusive: 4.15 µM [inhibitor, single point]",–
COc1cc2c(cc1OC)C(c1ccccc1)N(C(=O)c1ccccc1F)CC2 (stereo not given),"inconclusive: 11.7 µM [inhibitor, partial curve]",–
O=C(c1[nH]nc2c1CCc1ccccc1-2)N1CCN(Cc2ccc3c(c2)OCO3)CC1,"inconclusive: 11.7 µM [inhibitor, partial curve, poor fit]",–
CCCCCn1c(=O)[nH]c2cc(C(=O)NCc3ccc4c(c3)OCO4)ccc2c1=O,"inconclusive: 18.5 µM [inhibitor, single point]",–
Cc1cc(=O)oc2c3c(cc(OCC(=O)NCCCn4ccnc4)c12)OC(C)(C)CC3,"inconclusive: 9.28 µM [inhibitor, partial curve]",–
CC(C)(C)c1ccc(/C=N/OCC(=O)NCc2ccc(F)cc2)cc1,"inconclusive: 18.5 µM [inhibitor, single point]",–
C=CCn1cnnc1SCC(=O)NCC1COc2ccccc2O1 (stereo not given),"inconclusive: 3.7 µM [inhibitor, full curve]",–
COc1ccc(C(=O)NCc2nnc(SCC(=O)N3CCOCC3)o2)cc1,"inconclusive: 10.4 µM [inhibitor, single point]",–
Cc1ccc(/C=N/NC(=O)NN(C)c2ncc(C(F)(F)F)cc2Cl)cc1,"inconclusive: 11.7 µM [inhibitor, single point]",–
O=c1/c(=C/c2ccc([N+](=O)[O-])cc2)sc2n1CCCN=2,inactive,–
O=c1[nH]c2cc(C(F)(F)F)ccc2n1-c1cc(C(F)(F)F)ccc1O,"inconclusive: 10.4 µM [inhibitor, single point]",–
Cc1cccc(NC(=O)c2ccccc2NC(=O)Cc2ccccc2)c1C,inactive,–
O=C(COc1ccccc1)NCC(=O)N/N=C/c1ccc(Br)cc1,inactive,–
Cc1cccc(N2CCN(C(=O)c3cn(C)c(=O)c4c3c3ccccc3n4C)CC2)c1C,"inconclusive: 13.1 µM [inhibitor, single point]",–
O=C(NC1CCCCC1)c1cc2nc3c(c(C(F)(F)F)n2n1)CCCC3,–,inactive: -19.3% [at 5.75 µM]
COc1ccc(N2CCN(S(C)(=O)=O)CC2)cc1,"inconclusive: 18.5 µM [inhibitor, single point]",–
Cc1[nH]c2ccc(C(=O)N3CCN(C)CC3)cc2c1C,inactive,–
CC(C)OC(=O)C(C(=O)C(F)(F)F)c1cc(NS(=O)(=O)c2ccc3ccccc3c2)c2ccccc2c1O (stereo not given),active: 3.29 µM,–
Cc1cc(O)cc(=O)n1CCc1ccccc1,"inconclusive: 10.4 µM [inhibitor, single point]",–
Cc1cccc(N(C(=O)Cc2cccs2)C(C(=O)NCc2ccco2)c2ccncc2)c1 (stereo not given),"inconclusive: 10.4 µM [inhibitor, single point]",–

# Sorted by length of the SMILES (ascending): three of the compounds above
SMILES,Potency,"activity change, negative = inhibition"
O=C(CN1CCCCC1)N1CCN(c2ccccc2)CC1,inactive,–
Cc1ccc(C2C3C(=O)N(c4ccccc4)C(=O)C3N3CCCN23)cc1 (stereo not given),inactive,–
Cc1cccc(N(C(=O)Cc2cccs2)C(C(=O)NCc2ccco2)c2ccncc2)c1 (stereo not given),"inconclusive: 10.4 µM [inhibitor, single point]",–
